Experimental data from the supplement of paper PMC10849652.
The list shows a part of the results.

Protein sequences, listed by entry. Tags and fused reporters are not part of them. Lines headed by an entry give the natural chain unless they say otherwise; changes in a name come on top.
UniProt O15397, whole entry, looked up: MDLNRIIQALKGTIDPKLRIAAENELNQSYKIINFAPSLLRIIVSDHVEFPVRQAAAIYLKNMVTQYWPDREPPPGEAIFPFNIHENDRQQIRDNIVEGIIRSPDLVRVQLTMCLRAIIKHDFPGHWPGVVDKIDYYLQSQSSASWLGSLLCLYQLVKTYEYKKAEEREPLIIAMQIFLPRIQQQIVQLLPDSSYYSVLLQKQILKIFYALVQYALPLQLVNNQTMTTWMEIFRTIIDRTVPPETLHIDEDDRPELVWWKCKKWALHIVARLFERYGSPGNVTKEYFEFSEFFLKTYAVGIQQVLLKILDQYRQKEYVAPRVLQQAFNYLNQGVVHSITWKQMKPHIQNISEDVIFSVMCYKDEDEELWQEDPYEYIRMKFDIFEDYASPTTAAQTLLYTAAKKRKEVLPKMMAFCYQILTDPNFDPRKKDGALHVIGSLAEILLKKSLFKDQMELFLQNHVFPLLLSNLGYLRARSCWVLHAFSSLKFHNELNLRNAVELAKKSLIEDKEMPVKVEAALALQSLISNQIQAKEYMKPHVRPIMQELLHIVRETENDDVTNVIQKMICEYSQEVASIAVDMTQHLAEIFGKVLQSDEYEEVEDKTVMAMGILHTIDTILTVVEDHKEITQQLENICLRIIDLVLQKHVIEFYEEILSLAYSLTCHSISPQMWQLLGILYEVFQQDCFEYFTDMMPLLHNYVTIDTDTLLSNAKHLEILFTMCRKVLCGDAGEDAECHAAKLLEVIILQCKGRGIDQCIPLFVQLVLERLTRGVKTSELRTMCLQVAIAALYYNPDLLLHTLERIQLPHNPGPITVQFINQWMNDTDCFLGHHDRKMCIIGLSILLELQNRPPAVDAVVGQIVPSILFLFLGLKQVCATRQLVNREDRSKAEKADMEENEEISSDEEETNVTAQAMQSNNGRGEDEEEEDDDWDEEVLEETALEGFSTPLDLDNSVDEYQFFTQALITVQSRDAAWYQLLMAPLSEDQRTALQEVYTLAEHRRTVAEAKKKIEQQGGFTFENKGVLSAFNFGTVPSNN
UniProt P29218: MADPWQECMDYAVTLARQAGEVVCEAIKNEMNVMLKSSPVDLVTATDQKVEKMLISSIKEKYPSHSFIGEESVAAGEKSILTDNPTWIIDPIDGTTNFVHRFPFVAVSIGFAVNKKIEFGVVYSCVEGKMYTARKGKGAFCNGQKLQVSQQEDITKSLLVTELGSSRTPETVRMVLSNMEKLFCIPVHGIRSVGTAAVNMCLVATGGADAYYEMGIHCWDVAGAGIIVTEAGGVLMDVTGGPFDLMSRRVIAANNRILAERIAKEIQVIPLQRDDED
UniProt P01876, whole entry, looked up: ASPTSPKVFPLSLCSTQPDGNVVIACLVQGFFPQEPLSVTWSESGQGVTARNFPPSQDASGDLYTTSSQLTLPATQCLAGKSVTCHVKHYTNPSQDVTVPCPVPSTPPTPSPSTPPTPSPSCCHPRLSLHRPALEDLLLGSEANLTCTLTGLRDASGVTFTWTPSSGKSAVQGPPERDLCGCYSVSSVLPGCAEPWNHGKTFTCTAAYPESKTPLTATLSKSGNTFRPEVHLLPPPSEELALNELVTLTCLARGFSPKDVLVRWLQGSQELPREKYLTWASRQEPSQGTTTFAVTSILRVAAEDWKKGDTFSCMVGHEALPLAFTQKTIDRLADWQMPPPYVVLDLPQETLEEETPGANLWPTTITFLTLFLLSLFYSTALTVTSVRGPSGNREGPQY
UniProt P15260: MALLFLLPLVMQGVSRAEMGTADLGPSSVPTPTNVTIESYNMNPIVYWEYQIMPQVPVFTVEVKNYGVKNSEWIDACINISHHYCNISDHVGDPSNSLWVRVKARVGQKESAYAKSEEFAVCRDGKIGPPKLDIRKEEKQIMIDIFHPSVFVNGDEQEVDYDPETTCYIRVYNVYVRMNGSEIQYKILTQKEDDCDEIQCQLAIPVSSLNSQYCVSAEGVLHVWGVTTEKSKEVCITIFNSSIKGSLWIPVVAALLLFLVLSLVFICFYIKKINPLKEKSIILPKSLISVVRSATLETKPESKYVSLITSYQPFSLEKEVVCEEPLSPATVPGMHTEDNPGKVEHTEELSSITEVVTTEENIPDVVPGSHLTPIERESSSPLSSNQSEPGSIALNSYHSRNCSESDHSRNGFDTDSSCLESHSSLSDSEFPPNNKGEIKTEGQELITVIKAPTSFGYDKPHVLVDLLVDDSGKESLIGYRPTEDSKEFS
UniProt P17181: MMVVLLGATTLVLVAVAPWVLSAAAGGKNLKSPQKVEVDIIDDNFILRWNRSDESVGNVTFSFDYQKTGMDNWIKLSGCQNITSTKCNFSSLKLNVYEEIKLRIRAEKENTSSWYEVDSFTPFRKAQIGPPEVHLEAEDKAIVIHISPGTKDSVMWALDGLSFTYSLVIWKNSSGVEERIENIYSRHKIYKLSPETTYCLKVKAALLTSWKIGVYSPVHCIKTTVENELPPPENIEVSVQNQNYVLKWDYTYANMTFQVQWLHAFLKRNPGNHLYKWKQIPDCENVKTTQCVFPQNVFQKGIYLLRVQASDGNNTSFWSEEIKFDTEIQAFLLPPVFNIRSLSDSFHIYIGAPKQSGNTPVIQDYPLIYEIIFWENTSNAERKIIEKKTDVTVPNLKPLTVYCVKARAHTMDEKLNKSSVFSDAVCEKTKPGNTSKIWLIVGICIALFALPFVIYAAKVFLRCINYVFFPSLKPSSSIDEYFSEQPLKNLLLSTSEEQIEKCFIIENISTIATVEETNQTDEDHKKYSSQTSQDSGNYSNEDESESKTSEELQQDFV
UniProt Q9NQX7: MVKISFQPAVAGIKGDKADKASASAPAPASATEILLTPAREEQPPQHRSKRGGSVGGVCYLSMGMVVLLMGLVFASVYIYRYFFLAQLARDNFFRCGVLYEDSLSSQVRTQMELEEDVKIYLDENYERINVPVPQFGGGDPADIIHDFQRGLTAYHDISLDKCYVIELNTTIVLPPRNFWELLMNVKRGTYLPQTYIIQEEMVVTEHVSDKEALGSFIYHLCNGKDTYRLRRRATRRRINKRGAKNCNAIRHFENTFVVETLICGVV
UniProt P51617, whole entry, looked up: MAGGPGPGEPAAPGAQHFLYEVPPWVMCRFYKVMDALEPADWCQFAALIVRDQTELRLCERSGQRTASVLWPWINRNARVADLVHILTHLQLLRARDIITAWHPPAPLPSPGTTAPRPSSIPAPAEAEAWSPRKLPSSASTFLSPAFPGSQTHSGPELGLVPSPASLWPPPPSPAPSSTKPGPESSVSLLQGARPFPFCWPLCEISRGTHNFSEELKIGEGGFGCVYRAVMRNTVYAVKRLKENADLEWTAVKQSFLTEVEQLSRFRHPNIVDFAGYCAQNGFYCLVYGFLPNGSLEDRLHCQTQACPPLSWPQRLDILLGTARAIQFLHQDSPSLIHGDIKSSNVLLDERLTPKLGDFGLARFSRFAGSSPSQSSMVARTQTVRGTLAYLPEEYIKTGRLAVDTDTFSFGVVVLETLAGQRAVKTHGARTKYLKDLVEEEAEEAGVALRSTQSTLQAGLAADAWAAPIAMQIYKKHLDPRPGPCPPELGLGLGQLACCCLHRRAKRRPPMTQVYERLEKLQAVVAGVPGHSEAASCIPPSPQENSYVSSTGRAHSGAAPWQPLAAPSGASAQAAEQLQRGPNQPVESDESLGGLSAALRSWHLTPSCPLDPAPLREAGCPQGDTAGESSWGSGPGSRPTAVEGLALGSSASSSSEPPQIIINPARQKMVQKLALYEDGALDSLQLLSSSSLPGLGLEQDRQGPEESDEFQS
UniProt P0DMQ5: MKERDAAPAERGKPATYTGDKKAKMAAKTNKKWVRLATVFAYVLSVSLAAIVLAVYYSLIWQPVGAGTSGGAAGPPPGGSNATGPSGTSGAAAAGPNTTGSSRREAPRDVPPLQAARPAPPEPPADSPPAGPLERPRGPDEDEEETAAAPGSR
UniProt P14316: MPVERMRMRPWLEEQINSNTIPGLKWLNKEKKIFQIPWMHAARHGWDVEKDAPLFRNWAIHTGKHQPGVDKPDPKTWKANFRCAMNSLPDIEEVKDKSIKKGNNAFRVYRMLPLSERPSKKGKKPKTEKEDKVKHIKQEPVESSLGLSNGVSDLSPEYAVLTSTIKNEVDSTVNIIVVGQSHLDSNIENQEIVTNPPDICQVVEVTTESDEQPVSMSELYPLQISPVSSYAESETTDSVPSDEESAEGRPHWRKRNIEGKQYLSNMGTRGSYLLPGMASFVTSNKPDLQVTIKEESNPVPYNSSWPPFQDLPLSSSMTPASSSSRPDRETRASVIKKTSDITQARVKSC
UniProt Q75QN2, whole entry, looked up: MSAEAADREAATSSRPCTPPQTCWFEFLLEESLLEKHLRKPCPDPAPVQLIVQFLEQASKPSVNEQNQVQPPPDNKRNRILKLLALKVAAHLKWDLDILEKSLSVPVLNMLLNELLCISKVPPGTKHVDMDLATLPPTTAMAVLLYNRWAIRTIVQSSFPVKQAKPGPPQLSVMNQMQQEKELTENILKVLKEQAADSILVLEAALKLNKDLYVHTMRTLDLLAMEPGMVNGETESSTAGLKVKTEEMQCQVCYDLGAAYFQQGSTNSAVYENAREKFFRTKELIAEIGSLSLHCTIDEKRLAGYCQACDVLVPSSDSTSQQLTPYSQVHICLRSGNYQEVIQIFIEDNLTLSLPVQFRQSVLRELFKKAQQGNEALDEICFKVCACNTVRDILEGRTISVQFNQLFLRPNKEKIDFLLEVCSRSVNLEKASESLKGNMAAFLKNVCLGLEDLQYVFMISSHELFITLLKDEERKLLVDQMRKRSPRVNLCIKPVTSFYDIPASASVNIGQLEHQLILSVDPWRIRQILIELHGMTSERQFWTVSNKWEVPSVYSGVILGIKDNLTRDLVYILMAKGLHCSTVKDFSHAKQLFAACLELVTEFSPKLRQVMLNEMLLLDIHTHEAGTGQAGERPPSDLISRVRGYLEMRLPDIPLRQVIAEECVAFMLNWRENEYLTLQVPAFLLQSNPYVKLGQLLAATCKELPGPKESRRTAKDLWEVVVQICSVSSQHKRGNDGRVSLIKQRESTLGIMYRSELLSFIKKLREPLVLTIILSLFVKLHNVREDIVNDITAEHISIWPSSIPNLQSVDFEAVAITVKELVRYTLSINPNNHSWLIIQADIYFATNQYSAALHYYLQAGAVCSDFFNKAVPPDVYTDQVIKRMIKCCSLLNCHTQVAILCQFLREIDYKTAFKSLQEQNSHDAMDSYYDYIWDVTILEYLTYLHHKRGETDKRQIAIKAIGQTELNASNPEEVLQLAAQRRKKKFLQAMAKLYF
UniProt Q8IWB1: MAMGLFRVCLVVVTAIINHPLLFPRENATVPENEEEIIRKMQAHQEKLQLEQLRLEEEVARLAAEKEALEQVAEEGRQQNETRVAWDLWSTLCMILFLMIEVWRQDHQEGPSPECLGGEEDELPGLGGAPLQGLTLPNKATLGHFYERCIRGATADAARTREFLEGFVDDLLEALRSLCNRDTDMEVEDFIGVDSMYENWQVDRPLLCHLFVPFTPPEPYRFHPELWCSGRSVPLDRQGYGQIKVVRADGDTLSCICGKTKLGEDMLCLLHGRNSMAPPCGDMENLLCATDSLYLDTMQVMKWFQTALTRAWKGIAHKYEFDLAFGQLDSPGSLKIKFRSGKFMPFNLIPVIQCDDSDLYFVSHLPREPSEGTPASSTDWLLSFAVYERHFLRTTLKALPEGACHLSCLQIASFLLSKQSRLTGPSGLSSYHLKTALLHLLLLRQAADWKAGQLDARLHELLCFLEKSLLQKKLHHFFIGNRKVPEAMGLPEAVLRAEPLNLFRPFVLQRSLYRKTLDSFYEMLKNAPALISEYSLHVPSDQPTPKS
UniProt Q08334: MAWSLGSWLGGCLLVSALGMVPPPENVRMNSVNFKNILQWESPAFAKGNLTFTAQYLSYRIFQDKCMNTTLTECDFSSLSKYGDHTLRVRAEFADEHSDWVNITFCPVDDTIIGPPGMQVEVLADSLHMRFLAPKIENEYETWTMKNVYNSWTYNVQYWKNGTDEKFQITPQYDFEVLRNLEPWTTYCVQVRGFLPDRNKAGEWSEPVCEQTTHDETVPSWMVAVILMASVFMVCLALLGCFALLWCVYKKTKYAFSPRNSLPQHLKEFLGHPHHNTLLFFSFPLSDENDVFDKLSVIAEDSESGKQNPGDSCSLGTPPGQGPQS
UniProt P17936, whole entry, looked up: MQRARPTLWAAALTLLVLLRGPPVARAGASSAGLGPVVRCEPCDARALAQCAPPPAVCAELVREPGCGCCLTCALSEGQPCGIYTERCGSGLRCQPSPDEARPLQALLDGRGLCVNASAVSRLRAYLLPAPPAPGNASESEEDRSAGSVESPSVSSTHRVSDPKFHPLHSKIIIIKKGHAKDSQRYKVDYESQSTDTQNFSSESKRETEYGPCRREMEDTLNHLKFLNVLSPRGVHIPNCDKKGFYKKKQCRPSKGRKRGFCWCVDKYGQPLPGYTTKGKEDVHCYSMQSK
UniProt Q9BUE6: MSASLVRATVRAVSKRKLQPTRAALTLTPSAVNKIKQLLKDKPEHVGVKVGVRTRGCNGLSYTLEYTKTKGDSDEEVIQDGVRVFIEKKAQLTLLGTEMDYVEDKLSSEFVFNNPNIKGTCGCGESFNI

Compound: CC1=C(C=C(C=C1)NC(=O)C2=CC(=CC=C2)N(C)C)NC(=O)C3=CC=C(C=C3)O
Assay: log2 fold change, soluble protein after heating vs DMSO (PISA); higher = thermal stabilisation; K562 cells, 10 uM, 30 min; active = over 0.2 and 3.5 SD of the protein, either way, in both replicates (recomputed)
Method in brief: (§1)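 Soluble protein was quantified by TMTpro 16plex LC-MS/MS after channel sums were equalised. It was obtained as the supernatant after 21,000xg for 90 min from pooled aliquots of K562 cells (2×10^6 cells/mL, 10 μM compound, 30 min) heated for 3 min across 48°C-58°C and extracted in PBS with 0.5% NP-40 at 4°C. Thermal stability values are relative to control samples and come from duplicates. They are given as log2 fold changes.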

Row | Target | log2 fold change
1 | IPO8 (UniProt O15397) | inactive: 0.028
2 | ITGA2B (UniProt P08514) | inactive: 0.064
3 | IP6K1 (UniProt Q92551) | inactive: 0.022
4 | IMPA1 isoform 3 (UniProt P29218) | inactive: 0.011
5 | IGHA1 (UniProt P01876) | inactive: 0.249
6 | IRF2BP1 (UniProt Q8IU81) | inactive: 0.004
7 | IFNGR1 (UniProt P15260) | inactive: 0.048
8 | IFNAR1 (UniProt P17181) | inactive: 0.049
9 | ITM2C (UniProt Q9NQX7) | inactive: 0.004
10 | IRAK1 (UniProt P51617) | inactive: 0.024
11 | INF2 (UniProt Q27J81) | inactive: -0.002
12 | INAFM2 (UniProt P0DMQ5) | inactive: -0.042
13 | INPP5K (UniProt Q9BT40) | inactive: 0.028
14 | IKZF1 isoform 2 (UniProt Q13422) | inactive: -0.068
15 | IMPA2 (UniProt O14732) | inactive: -0.011
16 | IKZF4 (UniProt Q9H2S9) | inactive: -0.179
17 | IRF2 (UniProt P14316) | inactive: -0.035
18 | INTS8 (UniProt Q75QN2) | inactive: 0.004
19 | ITPRIP (UniProt Q8IWB1) | inactive: 0.007
20 | INTS1 (UniProt Q8N201) | inactive: -0.057
21 | IGKC (UniProt P01834) | inactive: 0.42
22 | IFT20 isoform 2 (UniProt Q8IY31) | inactive: 0.064
23 | ISOC2 (UniProt Q96AB3) | inactive: -0.096

Compound: CC1=CC=C(C=C1)SC2=C3C=C(SC3=CN=C2)C(=O)N
Assay: as above
Method in brief: as §1

Row | Target | log2 fold change
24 | IPO8 (UniProt O15397) | inactive: 0.01
25 | ITGA2B (UniProt P08514) | inactive: -0.058
26 | IL18R1 (UniProt Q13478) | inactive: -0.105
27 | IMPA1 isoform 3 (UniProt P29218) | inactive: 0.009
28 | IGHA1 (UniProt P01876) | inactive: 0.524
29 | IRF2BP1 (UniProt Q8IU81) | inactive: 0.066
30 | IFNGR1 (UniProt P15260) | inactive: -0.056
31 | IFNAR1 (UniProt P17181) | inactive: 0.064
32 | ITM2C (UniProt Q9NQX7) | inactive: 0.187
33 | IL10RB (UniProt Q08334) | inactive: -0.012
34 | INIP (UniProt Q9NRY2) | inactive: 0.086
35 | IGFBP3 isoform 2 (UniProt P17936) | inactive: 0.1
36 | ISCA1 isoform 2 (UniProt Q9BUE6) | inactive: 0.027
37 | INAFM2 (UniProt P0DMQ5) | inactive: 0.105
38 | IGLL5 (UniProt B9A064) | inactive: 0.091
39 | IMPA2 (UniProt O14732) | inactive: -0.008
40 | IKZF4 (UniProt Q9H2S9) | inactive: 0.016
41 | IRF2 (UniProt P14316) | inactive: -0.024
42 | INTS8 (UniProt Q75QN2) | inactive: 0.047
43 | ITPRIP (UniProt Q8IWB1) | inactive: -0.01
44 | ISOC2 (UniProt Q96AB3) | inactive: 0.032

Compound: CC1=NC(=CC=C1)C2=C(N=C(N2)C(C)(C)C)C3=CC4=NC=CN=C4C=C3
Assay: as above
Method in brief: as §1

Row | Target | log2 fold change
45 | IPO8 (UniProt O15397) | inactive: -0.104
46 | ITGA2B (UniProt P08514) | inactive: -0.052
47 | ILF3 (UniProt Q12906) | inactive: -0.177
48 | IL18R1 (UniProt Q13478) | inactive: -0.067
49 | IMPA1 isoform 3 (UniProt P29218) | inactive: -0.002
50 | IFNAR1 (UniProt P17181) | inactive: -0.33
51 | IRAK1 (UniProt P51617) | inactive: -0.098
52 | INF2 (UniProt Q27J81) | inactive: -0.14
53 | IL10RB (UniProt Q08334) | inactive: -0.17
54 | IGFBP3 isoform 2 (UniProt P17936) | inactive: 0.205
55 | ISCA1 isoform 2 (UniProt Q9BUE6) | inactive: 0.094
56 | INAFM2 (UniProt P0DMQ5) | inactive: -0.249
57 | IGLL5 (UniProt B9A064) | inactive: -0.04
58 | INPP5K (UniProt Q9BT40) | inactive: -0.063
59 | IRF2 (UniProt P14316) | inactive: 0.078
60 | INTS8 (UniProt Q75QN2) | inactive: -0.041
61 | ITPRIP (UniProt Q8IWB1) | inactive: 0.081
62 | ING1 (UniProt Q9UK53) | inactive: 0.057
63 | IGKC (UniProt P01834) | inactive: -0.493
64 | ISOC2 (UniProt Q96AB3) | inactive: 0.04

Compound: CCCCN(Cc1ccc(C(=O)NO)cc1)C(=O)Nc1ccccc1 [Nexturastat A]
Assay: as above
Method in brief: as §1

Row | Target | log2 fold change
65 | IPO8 (UniProt O15397) | inactive: 0.173
66 | ITGA2B (UniProt P08514) | inactive: 0.121
67 | ILF3 (UniProt Q12906) | inactive: 0.347
68 | IP6K1 (UniProt Q92551) | inactive: 0.232
69 | IMPA1 isoform 3 (UniProt P29218) | inactive: -0.054
70 | IGHA1 (UniProt P01876) | inactive: -0.305
71 | IFNGR1 (UniProt P15260) | active: 0.743
72 | IFNAR1 (UniProt P17181) | inactive: -0.152
73 | ITM2C (UniProt Q9NQX7) | inactive: 0.084
74 | IRAK1 (UniProt P51617) | inactive: 0.248
75 | INF2 (UniProt Q27J81) | inactive: -0.006
76 | IL10RB (UniProt Q08334) | inactive: 0.082
77 | INIP (UniProt Q9NRY2) | inactive: 0.205
78 | IGFBP5 (UniProt P24593) | inactive: 0.083
79 | IGFBP3 isoform 2 (UniProt P17936) | inactive: 0.204
80 | ISCA1 isoform 2 (UniProt Q9BUE6) | inactive: 0.029
81 | INAFM2 (UniProt P0DMQ5) | inactive: 0.229
82 | INPP5K (UniProt Q9BT40) | inactive: -0.156
83 | IKZF4 (UniProt Q9H2S9) | inactive: 0.302
84 | ITPRIP (UniProt Q8IWB1) | inactive: 0.005
85 | INTS1 (UniProt Q8N201) | inactive: 0.289
86 | ISOC2 (UniProt Q96AB3) | inactive: -0.016
